Structures were worked out from names or drawings and are uncertain.
Tests used:
[1] = target: human A3 adenosine receptor (Homo sapiens, UniProt P0DMS8); test: [3H]MRE3008F20 binding to human A3 receptors expressed in CHO cells; settings: read-out: Ki, [3H]MRE3008F20 binding to human A3 receptors expressed in CHO cells; geometric mean (95% confidence interval); >1000 = no appreciable binding
[2] = target: human A2B adenosine receptor (Homo sapiens, UniProt P29275); test: [3H]DPCPX binding to human A2B receptors expressed in HEK293 cells; settings: read-out: Ki, [3H]DPCPX binding to human A2B receptors expressed in HEK293 cells; geometric mean (95% confidence interval); >1000 = no appreciable binding
[3] = target: human A2A adenosine receptor (Homo sapiens, UniProt P29274); test: [3H]ZM241385 binding to human A2A receptors expressed in CHO cells; settings: read-out: Ki, [3H]ZM241385 binding to human A2A receptors expressed in CHO cells; geometric mean (95% confidence interval); >1000 = no appreciable binding
[4] = target: human A1 adenosine receptor (Homo sapiens, UniProt P30542); test: [3H]DPCPX binding to human A1 receptors expressed in CHO cells; settings: read-out: Ki, [3H]DPCPX binding to human A1 receptors expressed in CHO cells; geometric mean (95% confidence interval); >1000 = no appreciable binding

By UniProt entry, the sequences of proteins in these tests, tags left out. Where a name states a change or a piece, a line headed by the entry shows the natural chain unless it says otherwise.
UniProt P0DMS8, whole entry: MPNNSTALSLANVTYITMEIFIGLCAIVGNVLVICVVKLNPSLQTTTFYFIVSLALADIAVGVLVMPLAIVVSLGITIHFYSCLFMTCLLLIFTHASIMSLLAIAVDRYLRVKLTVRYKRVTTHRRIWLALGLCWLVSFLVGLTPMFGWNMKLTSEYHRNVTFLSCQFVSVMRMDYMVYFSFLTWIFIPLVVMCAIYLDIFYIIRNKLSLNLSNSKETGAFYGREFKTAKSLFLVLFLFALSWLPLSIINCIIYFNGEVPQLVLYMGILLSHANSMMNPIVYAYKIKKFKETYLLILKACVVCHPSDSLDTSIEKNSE
UniProt P29275, whole entry: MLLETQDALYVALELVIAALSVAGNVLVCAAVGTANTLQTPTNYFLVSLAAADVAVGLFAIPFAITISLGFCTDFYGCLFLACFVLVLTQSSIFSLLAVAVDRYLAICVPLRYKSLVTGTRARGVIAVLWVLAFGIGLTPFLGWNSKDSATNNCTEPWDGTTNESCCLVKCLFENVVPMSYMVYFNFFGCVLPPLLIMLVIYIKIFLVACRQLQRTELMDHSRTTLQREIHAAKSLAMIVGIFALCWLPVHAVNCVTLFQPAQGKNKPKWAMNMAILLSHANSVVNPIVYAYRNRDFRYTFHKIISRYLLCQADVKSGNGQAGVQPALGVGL
UniProt P30542, whole entry: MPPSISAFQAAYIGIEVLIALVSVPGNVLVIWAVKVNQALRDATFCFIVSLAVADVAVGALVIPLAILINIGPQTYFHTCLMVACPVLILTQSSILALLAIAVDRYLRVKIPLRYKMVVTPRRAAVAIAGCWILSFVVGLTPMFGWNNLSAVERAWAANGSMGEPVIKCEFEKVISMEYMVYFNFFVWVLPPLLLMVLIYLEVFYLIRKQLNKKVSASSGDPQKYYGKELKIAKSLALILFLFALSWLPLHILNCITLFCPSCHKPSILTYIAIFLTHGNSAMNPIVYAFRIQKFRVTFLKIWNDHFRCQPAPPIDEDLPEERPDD

Measured: Ki

CCCn1c(=O)c2[nH]c(-c3cc(COC(=O)c4ccccc4)on3)nc2n(CCC)c1=O
> 1000 nM: all assays above

CCCn1c(=O)c2[nH]c(-c3cc(OCC(=O)Nc4ccc5c(c4)OCO5)no3)nc2n(CCC)c1=O
> 1000 nM: [1] | [3] | [4]

Source: patent US7205403B2, “8-Heteroaryl xanthine adenosine A2B receptor antagonists” (King Pharmaceuticals Research and Development, Inc., priority 2002, dated 2007)
